Results deposited as PubChem BioAssay AID602196 (INSERM, 2012)

Screen: 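Genes whose knock-down alters cisplatin killing of lung cancer cells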
Cells: human A549 lung cancer cells
Reagent: siRNA pair against human genes
Time to read-out: 48 h transfection before cisplatin; time from cisplatin to read-out not stated
Challenge: cisplatin at a dose killing half of control-siRNA cells; exact dose and duration not given
Read-out: 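Shift in cisplatin death relative to control siRNA, from -50 (all cells die) to +50 (no cells die); siRNAs harmful on their own scored 0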
Direction: two-siRNA summed score (-2 to +2): higher = both siRNAs protect from cisplatin killing; -2 means both sensitise; mean protection from cisplatin (shift in death) and protection from cisplatin (shift in death), siRNA C and protection from cisplatin (shift in death), siRNA D: higher = protection from cisplatin killing
Call rule: 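siRNAs harmful alone (LDH or WST-1) get 0; others get +1 for less and -1 for more cisplatin killing; genes are active when the two siRNAs give the same sign, summing to ±2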
Meaning of the calls: active = both siRNAs shift cisplatin killing the same way; inactive = no consistent shift, or siRNA harmful alone
In all, the deposit lists about 23,000 reagents; shown is a part drawn at random. In the full data, 455 (2%) got an active call. 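Active includes both protection and sensitisation; some change values fall well beyond the stated -50 to +50 range.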 Reagents against one gene are numbered here. Reagent sequences are not shown. The record does not give: the amount of reagent.

gene,reagent no.,two-siRNA summed score (-2 to +2),mean protection from cisplatin (shift in death) (%),"protection from cisplatin (shift in death), siRNA C (%)","protection from cisplatin (shift in death), siRNA D (%)",Outcome
SIPA1L1,1,0,8.8,0.5,17.2,inactive
IFT54,1,-1,-17.9,-28.8,-7.1,inactive
HCCS,1,1,11.9,9.5,14.3,inactive
HSBP1,1,0,6.6,8.8,4.3,inactive
LRRC20,1,0,-5.9,-13.6,1.8,inactive
COL8A1,1,1,6.2,-11.1,23.5,inactive
BPIFB9P,1,0,2.1,2.3,1.9,inactive
LOC441367,1,0,-0.1,0.3,-0.4,inactive
ABHD4,1,0,0.4,-0.8,1.5,inactive
SLTM,1,0,1,-6.3,8.4,inactive
SLTM,2,0,5.4,-1.7,12.5,inactive
HLA-G,1,1,8.3,2,14.7,inactive
AIFM1,1,0,0,0.6,-0.6,inactive

Part of the list above, showing only “two-siRNA summed score (-2 to +2)”:
SIPA1L1	0
IFT54	-1
HCCS	1
HSBP1	0

The list goes on.
gene,reagent no.,two-siRNA summed score (-2 to +2),mean protection from cisplatin (shift in death) (%),"protection from cisplatin (shift in death), siRNA C (%)","protection from cisplatin (shift in death), siRNA D (%)",Outcome
IL18R1,1,1,8.2,14.8,1.6,inactive
DIS3L2,1,1,15.8,10.2,21.5,inactive
CEP63,1,0,1.9,0.2,3.5,inactive
LOC442709,1,0,3,8.3,-2.2,inactive
TMEM186,1,0,-0.6,13.4,-14.5,inactive
OR2AE1,1,0,10.2,18.9,1.5,inactive
LOC200373,1,0,-2.8,0.8,-6.4,inactive
ARHGEF5,1,0,1.7,16,-12.6,inactive
DKKL1,1,0,4.6,15.6,-6.3,inactive
FAM13C,1,1,15.1,19.9,10.3,inactive
